In PubChem BioAssay AID624404 (Broad Institute, 2012):
The entries are a selection whose mix differs from that of the whole data set. Measured potencies and affinities stand elsewhere. Inconclusive results are not listed. Active and inactive are the calls of the source.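 How the source made its calls: active means luciferase signal rise whose fitted curve crosses a set activity limit at or below the top valid tested dose; inconclusive means flat fit with 30 to 70% rise, or poor fit; inactive means signal falling, flat within 30%, or crossing above top dose.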

Assay: luciferase activators in glycosylation-insensitive reporter cells, dose response, counter-screen for N-linked glycosylation inhibitor project, D54 LucT cells, luminescence, cherry pick (AID 624404);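 further: 0% = median neutral control signal and 100% = twice that signal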
Details: D54 LucT luciferase reporter counterscreen, 24 h; at 19.5 µM (top of the series)
In the case of `O=C1NN(c2ccccc2)C(=O)/C1=C/c1ccc(Sc2ccc(Cl)cc2)o1`, the activity increase (luciferase signal) is reported as inactive: 5.17%.
